For two molecules, binding results are on record in PMC3252370.

The chains behind the UniProt entries cited, without tags or fusion partners. Residues count along the entry.
UniProt P02751, residues 32-2477: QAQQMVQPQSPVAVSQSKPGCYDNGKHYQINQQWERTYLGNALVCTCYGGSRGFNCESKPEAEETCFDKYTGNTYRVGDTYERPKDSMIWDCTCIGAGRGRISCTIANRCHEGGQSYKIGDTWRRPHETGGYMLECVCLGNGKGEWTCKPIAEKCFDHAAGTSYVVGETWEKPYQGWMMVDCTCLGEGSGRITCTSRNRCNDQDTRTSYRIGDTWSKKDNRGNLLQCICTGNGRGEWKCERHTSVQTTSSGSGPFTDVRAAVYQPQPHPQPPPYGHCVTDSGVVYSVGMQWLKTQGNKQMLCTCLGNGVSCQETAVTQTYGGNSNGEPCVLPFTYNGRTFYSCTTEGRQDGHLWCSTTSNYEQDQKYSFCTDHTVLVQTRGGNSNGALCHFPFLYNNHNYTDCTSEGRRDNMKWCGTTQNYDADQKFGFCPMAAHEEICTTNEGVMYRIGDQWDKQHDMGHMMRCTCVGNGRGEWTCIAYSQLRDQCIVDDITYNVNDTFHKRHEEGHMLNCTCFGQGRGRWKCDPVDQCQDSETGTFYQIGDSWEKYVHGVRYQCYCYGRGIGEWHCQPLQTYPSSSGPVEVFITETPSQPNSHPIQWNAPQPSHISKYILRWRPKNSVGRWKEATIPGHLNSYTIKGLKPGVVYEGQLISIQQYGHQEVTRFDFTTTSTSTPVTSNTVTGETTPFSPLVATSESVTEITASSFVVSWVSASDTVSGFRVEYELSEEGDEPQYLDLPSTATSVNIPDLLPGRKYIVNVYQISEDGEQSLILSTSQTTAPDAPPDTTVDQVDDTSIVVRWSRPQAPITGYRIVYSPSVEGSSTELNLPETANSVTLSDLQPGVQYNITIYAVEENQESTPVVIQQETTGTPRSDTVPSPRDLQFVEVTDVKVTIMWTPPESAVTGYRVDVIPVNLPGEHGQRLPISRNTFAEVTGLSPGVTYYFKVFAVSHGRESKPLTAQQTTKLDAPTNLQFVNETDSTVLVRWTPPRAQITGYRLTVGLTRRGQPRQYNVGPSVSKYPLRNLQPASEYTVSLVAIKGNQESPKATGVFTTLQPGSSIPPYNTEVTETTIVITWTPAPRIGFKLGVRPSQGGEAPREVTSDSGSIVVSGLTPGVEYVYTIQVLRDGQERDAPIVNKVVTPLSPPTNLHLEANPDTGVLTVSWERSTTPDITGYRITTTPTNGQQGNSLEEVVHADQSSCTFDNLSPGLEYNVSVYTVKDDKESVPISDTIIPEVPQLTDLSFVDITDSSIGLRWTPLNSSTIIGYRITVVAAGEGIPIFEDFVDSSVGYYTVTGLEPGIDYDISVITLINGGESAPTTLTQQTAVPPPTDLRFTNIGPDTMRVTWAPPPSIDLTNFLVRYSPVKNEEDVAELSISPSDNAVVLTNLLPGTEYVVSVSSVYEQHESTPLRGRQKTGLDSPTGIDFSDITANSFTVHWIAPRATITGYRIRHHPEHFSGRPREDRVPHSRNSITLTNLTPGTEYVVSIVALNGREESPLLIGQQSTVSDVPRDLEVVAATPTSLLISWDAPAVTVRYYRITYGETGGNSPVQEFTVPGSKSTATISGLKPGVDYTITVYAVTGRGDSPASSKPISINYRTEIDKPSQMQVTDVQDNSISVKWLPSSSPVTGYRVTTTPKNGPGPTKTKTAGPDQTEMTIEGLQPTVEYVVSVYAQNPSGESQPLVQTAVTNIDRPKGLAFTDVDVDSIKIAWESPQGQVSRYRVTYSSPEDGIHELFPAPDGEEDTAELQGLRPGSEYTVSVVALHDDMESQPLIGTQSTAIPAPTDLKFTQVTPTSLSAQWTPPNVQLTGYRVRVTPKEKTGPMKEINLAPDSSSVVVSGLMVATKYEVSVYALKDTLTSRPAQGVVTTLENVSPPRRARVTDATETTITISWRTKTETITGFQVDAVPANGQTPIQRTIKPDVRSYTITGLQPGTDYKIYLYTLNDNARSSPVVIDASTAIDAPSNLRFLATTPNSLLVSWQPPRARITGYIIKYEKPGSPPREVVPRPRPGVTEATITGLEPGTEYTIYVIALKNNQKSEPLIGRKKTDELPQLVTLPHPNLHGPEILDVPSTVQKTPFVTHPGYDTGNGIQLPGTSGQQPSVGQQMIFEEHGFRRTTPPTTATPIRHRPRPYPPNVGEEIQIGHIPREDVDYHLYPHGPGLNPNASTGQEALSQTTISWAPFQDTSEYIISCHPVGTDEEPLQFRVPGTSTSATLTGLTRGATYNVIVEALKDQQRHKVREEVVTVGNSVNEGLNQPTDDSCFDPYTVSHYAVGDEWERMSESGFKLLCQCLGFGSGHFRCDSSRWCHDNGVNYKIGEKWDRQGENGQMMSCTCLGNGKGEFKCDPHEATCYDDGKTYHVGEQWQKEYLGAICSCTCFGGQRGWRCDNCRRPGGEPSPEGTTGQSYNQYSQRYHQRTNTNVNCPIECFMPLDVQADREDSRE

No constants are given. Whether binding was seen depends on the method and setting. Binding seen in cells or lysates may run through a third protein. Some binding calls cover weakened binding; strength is not graded here. For some assays here: Where a sequence is shown, tags or fusion partners need not be part of it.

Assay [1] deals with T1, Robo4 (Roundabout 4) (human (endogenous in L-LECs)) (UniProt Q8WZ75).
T1 sequence: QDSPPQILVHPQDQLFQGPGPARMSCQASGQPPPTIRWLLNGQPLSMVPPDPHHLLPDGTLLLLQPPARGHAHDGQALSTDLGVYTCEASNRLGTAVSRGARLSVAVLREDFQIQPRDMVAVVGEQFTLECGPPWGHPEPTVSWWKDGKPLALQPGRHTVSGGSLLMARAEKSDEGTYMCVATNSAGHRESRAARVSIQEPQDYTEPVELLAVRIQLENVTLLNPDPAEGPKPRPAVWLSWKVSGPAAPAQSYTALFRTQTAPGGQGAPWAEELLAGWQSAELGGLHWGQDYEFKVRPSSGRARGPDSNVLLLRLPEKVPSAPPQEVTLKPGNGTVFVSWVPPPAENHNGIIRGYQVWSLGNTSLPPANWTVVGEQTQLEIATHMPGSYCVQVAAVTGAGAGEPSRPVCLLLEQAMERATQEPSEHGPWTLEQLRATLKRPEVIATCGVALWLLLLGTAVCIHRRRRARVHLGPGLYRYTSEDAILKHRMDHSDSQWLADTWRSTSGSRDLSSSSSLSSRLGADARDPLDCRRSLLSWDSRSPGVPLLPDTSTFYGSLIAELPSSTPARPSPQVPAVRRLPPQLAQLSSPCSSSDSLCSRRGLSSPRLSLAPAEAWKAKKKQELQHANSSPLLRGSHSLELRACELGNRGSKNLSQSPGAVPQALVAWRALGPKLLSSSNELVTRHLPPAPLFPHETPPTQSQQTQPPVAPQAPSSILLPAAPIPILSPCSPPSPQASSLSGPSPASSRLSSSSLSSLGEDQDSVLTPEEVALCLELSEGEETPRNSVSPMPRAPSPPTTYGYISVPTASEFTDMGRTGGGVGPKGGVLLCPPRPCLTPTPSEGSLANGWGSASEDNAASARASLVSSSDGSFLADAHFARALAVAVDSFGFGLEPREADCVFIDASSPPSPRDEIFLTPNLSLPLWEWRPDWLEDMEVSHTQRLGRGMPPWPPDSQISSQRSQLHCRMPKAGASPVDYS
Briefly: co-IP; Robo4 immunoprecipitated from total lysates (RIPA buffer) of L-LECs, Western blot for the partner; cells serum-starved 2 h, then treated with HIV-1 gp120 (500 ng/ml), Slit2N (500 ng/ml) or controls for 15 min, or with Slit2N 2 h and then gp120 for the times indicated. On the technique in general: In western blotting, separated proteins are transferred to a membrane and probed.

Assay [2] concerns the target T2, RFP-tagged Robo4 (pCMV6-AC-RFP-Robo4) (UniProt Q8WZ75).
T2 sequence: T1 sequence
Briefly: co-IP; 293 cells co-transfected with a Robo4 expression plasmid and a Myc-tagged Slit2 expression plasmid or vector control, 48 h; Robo4 immunoprecipitated from total lysates, Western blot for c-Myc.

Turning to “fibronectin (from UniProt P02751 32-2477)”, the binding result in assay [1] was “binds”.

B1: Myc-DDK-tagged Slit2 (ligand, UniProt O94813 31-1529)
chain: QCSCSGSTVDCHGLALRSVPRNIPRNTERLDLNGNNITRITKTDFAGLRHLRVLQLMENKISTIERGAFQDLKELERLRLNRNHLQLFPELLFLGTAKLYRLDLSENQIQAIPRKAFRGAVDIKNLQLDYNQISCIEDGAFRALRDLEVLTLNNNNITRLSVASFNHMPKLRTFRLHSNNLYCDCHLAWLSDWLRQRPRVGLYTQCMGPSHLRGHNVAEVQKREFVCSGHQSFMAPSCSVLHCPAACTCSNNIVDCRGKGLTEIPTNLPETITEIRLEQNTIKVIPPGAFSPYKKLRRIDLSNNQISELAPDAFQGLRSLNSLVLYGNKITELPKSLFEGLFSLQLLLLNANKINCLRVDAFQDLHNLNLLSLYDNKLQTIAKGTFSPLRAIQTMHLAQNPFICDCHLKWLADYLHTNPIETSGARCTSPRRLANKRIGQIKSKKFRCSAKEQYFIPGTEDYRSKLSGDCFADLACPEKCRCEGTTVDCSNQKLNKIPEHIPQYTAELRLNNNEFTVLEATGIFKKLPQLRKINFSNNKITDIEEGAFEGASGVNEILLTSNRLENVQHKMFKGLESLKTLMLRSNRITCVGNDSFIGLSSVRLLSLYDNQITTVAPGAFDTLHSLSTLNLLANPFNCNCYLAWLGEWLRKKRIVTGNPRCQKPYFLKEIPIQDVAIQDFTCDDGNDDNSCSPLSRCPTECTCLDTVVRCSNKGLKVLPKGIPRDVTELYLDGNQFTLVPKELSNYKHLTLIDLSNNRISTLSNQSFSNMTQLLTLILSYNRLRCIPPRTFDGLKSLRLLSLHGNDISVVPEGAFNDLSALSHLAIGANPLYCDCNMQWLSDWVKSEYKEPGIARCAGPGEMADKLLLTTPSKKFTCQGPVDVNILAKCNPCLSNPCKNDGTCNSDPVDFYRCTCPYGFKGQDCDVPIHACISNPCKHGGTCHLKEGEEDGFWCICADGFEGENCEVNVDDCEDNDCENNSTCVDGINNYTCLCPPEYTGELCEEKLDFCAQDLNPCQHDSKCILTPKGFKCDCTPGYVGEHCDIDFDDCQDNKCKNGAHCTDAVNGYTCICPEGYSGLFCEFSPPMVLPRTSPCDNFDCQNGAQCIVRINEPICQCLPGYQGEKCEKLVSVNFINKESYLQIPSAKVRPQTNITLQIATDEDSGILLYKGDKDHIAVELYRGRVRASYDTGSHPASAIYSVETINDGNFHIVELLALDQSLSLSVDGGNPKIITNLSKQSTLNFDSPLYVGGMPGKSNVASLRQAPGQNGTSFHGCIRNLYINSELQDFQKVPMQTGILPGCEPCHKKVCAHGTCQPSSQAGFTCECQEGWMGPLCDQRTNDPCLGNKCVHGTCLPINAFSYSCKCLEGHGGVLCDEEEDLFNPCQAIKCKHGKCRLSGLGQPYCECSSGYTGDSCDREISCRGERIRDYYQKQQGYAACQTTKKVSRLECRGGCAGGQCCGPLRSKRRKYSFECTDGSSFVDEVEKVVKCGCTRCVS
In the case of B1, the binding result in assay [2] is “binds”.
